Values quoted from earlier work in patent publication US12605432B2, “Combinations for antigen based therapy” (Diamyd Medical AB, priority 2014, dated 2026).
At least one compound was matched to its structure with a doubt left.

Tests used:
[1] = system: blood glucose (BG) concentrations in patients; conditions: diabetic and nondiabetic patients in general clinical practice
[2] = system: macrophage cultures

Compound | blood glucose (BG) [1] | IL-10 secretion [2]
Cc1nc(Nc2ncc(C(=O)Nc3c(C)cccc3Cl)s2)cc(N2CCN(CCO)CC2)n1 [dasatinib] | significant declines in BG | –
CCN(CC)CCNC(=O)c1c(C)[nH]c(/C=C2\C(=O)Nc3ccc(F)cc32)c1C [sunitinib] | significant declines in BG | induced secretion of anti-inflammatory IL-10
